Experimental data as given in the supplement of paper PMC12819154, “High-throughput peptide-centric local stability assay extends protein–ligand identification to membrane proteins, tissues and bacteria” (Nature Structural & Molecular Biology, 2025).
This is one part of the list. Most values lie at the level of the controls, where differences are scatter.

The chains behind the UniProt entries cited, without tags or fusion partners. Where a name states a change or a piece, a line headed by the entry shows the natural chain unless it says otherwise.
UniProt P49005: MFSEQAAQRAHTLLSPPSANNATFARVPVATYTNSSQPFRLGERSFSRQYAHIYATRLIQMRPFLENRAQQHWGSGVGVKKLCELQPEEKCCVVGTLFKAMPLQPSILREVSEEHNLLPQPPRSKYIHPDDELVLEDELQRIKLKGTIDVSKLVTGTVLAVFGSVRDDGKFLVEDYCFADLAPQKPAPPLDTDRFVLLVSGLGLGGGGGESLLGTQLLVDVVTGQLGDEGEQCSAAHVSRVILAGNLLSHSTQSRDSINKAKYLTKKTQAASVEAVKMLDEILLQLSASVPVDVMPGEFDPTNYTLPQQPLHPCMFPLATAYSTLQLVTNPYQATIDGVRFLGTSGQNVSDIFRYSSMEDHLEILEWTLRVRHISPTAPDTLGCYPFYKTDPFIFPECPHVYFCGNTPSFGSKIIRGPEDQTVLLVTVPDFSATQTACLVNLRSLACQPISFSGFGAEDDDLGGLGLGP
UniProt P50995, whole entry: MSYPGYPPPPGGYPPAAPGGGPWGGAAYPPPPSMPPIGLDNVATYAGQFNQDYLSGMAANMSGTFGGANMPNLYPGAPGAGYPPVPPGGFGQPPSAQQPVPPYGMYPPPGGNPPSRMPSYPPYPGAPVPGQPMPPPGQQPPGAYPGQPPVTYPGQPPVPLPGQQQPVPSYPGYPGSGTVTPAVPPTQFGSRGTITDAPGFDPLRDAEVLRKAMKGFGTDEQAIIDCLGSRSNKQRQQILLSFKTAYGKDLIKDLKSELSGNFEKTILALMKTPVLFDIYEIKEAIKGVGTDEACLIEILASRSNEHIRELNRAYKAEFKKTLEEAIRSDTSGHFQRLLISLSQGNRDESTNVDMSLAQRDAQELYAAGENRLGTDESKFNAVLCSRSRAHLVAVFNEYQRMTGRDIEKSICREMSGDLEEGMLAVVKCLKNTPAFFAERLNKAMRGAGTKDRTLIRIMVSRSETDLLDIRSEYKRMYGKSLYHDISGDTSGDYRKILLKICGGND
UniProt P51159: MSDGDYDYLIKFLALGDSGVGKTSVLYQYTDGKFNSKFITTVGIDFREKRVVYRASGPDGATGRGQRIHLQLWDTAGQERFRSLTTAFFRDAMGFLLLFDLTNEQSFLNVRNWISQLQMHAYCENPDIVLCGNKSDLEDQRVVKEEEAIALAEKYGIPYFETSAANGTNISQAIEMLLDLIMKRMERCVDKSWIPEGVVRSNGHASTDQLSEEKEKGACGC
UniProt P51587, whole entry: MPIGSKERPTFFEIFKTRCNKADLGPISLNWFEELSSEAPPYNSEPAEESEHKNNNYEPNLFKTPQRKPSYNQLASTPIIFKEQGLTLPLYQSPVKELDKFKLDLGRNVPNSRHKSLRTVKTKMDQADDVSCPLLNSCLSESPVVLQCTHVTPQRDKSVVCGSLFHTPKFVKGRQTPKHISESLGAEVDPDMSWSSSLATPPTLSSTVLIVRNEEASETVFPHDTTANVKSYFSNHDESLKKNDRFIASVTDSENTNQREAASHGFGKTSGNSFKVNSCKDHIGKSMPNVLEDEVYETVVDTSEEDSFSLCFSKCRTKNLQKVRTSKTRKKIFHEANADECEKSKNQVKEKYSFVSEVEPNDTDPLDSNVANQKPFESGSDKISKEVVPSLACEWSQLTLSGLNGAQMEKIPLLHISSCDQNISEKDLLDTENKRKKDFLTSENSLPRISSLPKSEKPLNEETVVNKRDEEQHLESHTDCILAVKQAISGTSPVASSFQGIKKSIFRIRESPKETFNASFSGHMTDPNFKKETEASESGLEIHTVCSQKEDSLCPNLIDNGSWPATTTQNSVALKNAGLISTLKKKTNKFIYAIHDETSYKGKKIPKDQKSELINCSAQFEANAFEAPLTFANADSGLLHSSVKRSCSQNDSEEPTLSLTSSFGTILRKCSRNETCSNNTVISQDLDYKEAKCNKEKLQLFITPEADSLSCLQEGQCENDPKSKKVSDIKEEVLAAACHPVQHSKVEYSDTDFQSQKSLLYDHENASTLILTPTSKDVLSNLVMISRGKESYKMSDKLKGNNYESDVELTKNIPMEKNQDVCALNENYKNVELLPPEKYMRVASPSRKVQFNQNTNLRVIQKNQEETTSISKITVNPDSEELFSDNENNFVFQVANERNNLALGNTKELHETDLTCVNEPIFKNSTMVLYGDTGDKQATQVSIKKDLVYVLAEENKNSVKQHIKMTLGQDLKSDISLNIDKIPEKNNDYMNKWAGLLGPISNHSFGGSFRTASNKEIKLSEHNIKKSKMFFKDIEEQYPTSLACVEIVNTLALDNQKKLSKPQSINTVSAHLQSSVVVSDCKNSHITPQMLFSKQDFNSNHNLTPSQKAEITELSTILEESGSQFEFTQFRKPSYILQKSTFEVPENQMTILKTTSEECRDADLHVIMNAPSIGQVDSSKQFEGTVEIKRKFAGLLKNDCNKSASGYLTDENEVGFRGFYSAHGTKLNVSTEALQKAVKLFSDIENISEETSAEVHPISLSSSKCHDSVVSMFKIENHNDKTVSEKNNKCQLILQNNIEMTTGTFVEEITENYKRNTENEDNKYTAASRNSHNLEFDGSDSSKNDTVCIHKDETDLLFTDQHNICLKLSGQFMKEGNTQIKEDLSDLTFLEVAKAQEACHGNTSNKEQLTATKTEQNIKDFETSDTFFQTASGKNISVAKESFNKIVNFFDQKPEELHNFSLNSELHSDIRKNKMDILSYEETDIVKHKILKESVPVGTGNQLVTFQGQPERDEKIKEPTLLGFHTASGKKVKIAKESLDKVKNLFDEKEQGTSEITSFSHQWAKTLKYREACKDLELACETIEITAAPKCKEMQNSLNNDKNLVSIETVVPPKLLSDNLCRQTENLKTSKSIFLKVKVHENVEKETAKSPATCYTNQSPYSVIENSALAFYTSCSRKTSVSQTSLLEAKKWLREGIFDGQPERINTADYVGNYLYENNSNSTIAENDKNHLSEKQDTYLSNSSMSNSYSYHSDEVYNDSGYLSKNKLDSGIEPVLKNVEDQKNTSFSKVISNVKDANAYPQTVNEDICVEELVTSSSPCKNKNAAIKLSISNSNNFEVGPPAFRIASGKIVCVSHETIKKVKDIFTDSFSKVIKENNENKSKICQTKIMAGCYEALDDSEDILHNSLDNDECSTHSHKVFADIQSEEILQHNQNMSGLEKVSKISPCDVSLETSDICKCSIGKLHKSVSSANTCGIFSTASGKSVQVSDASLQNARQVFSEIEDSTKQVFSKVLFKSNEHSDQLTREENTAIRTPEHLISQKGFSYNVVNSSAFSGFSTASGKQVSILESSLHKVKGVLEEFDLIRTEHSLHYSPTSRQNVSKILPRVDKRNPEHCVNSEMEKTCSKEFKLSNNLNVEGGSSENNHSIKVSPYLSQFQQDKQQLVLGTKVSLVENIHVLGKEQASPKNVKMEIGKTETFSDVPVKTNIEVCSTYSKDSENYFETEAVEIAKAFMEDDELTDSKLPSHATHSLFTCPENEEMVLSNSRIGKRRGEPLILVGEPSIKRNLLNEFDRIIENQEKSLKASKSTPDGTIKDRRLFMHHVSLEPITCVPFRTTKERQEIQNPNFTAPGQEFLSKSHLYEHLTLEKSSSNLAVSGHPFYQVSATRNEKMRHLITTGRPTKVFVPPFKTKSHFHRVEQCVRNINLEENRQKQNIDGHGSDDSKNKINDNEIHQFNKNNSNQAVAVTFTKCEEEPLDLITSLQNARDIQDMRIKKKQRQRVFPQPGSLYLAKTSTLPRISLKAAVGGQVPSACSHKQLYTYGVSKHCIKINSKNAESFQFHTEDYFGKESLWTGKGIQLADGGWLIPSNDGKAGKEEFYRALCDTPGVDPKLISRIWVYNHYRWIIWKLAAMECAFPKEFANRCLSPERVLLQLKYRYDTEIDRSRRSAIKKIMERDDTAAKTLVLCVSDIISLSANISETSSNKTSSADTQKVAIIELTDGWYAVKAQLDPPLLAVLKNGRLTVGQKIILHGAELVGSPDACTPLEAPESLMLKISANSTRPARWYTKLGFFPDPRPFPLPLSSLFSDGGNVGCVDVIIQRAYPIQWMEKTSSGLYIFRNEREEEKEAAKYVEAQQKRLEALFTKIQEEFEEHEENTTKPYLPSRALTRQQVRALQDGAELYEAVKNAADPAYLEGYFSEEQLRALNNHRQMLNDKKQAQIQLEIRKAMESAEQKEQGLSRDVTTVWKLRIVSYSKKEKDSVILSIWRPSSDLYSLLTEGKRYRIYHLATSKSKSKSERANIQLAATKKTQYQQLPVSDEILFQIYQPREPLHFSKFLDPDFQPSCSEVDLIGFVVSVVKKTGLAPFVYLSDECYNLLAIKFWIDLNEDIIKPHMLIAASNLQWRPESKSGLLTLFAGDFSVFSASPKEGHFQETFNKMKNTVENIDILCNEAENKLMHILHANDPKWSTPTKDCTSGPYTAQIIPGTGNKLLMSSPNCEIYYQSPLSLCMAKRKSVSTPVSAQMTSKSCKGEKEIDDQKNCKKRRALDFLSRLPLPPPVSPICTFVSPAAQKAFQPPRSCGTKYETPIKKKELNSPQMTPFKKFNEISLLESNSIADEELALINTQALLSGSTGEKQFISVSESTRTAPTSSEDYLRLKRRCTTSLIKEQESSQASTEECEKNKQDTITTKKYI
UniProt P54136: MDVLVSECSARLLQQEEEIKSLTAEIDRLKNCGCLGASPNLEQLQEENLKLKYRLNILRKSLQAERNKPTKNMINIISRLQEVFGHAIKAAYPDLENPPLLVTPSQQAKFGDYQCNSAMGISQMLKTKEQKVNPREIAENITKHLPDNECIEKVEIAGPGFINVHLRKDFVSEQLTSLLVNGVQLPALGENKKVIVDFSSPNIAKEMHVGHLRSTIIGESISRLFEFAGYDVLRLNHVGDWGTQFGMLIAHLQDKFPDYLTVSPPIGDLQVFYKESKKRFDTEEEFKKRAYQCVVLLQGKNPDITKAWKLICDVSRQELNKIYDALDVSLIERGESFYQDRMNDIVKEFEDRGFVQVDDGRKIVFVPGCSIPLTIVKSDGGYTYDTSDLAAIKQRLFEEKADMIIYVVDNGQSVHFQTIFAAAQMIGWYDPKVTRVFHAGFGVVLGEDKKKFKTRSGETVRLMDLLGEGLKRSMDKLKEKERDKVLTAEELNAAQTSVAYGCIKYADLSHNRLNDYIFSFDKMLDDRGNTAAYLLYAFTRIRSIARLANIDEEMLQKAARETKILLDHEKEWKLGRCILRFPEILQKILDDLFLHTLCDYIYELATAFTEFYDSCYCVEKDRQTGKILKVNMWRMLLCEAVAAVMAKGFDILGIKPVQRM
UniProt P49366: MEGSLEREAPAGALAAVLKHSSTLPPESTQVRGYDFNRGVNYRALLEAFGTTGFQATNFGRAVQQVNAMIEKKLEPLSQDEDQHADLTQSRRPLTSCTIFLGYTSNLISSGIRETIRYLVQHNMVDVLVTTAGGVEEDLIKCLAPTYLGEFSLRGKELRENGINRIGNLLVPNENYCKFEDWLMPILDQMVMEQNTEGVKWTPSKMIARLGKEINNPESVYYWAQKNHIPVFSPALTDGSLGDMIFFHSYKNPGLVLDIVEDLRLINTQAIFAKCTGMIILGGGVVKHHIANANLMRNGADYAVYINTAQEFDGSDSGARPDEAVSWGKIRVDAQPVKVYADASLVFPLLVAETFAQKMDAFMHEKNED
UniProt P50454: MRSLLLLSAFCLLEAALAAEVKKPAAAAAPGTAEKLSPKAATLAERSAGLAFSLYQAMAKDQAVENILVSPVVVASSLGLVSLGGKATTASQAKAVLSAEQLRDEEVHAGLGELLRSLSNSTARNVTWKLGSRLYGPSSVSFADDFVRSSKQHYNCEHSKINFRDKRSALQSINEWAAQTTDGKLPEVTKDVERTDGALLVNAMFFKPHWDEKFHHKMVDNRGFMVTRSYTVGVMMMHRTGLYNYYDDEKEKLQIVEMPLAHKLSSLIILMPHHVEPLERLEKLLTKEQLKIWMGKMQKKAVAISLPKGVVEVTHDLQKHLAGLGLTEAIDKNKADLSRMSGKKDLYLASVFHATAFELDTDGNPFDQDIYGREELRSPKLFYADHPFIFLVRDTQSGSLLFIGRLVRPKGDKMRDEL

Each target was assayed with Cc1nc(Nc2ncc(C(=O)Nc3c(C)cccc3Cl)s2)cc(N2CCN(CCO)CC2)n1 [dasatinib] (assay: log2 fold change of tryptic peptide abundance, ligand vs vehicle (limited proteolysis) (log2 ratio); higher = more trypsin-susceptible (destabilized)). Settings: ligand concentration: 5 uM; sample: K562 cleared lysate.
For “POLD2 (peptide sequence: AMPLQPSILR, peptide start residue: 100) (UniProt P49005)”, the log2 fold change was 0.168. With “ANXA11 (peptide sequence: KTLEEAIR, peptide start residue: 320) (UniProt P50995)” the log2 fold change was -0.466. Work on “RPL29 (peptide sequence: EVKPKIPK, peptide start residue: 80) (UniProt P47914)” yielded a log2 fold change of -1.04. “RAB27A (peptide sequence: SNGHASTDQLSEEKEKGACGC, peptide start residue: 201) (UniProt P51159)” was tested, and the log2 fold change was -0.241. Target “BRCA2 (peptide sequence: VSLVENIHVLGK, peptide start residue: 2171) (UniProt P51587)” has a log2 fold change of 0.701. Target “RARS (peptide sequence: YADLSHNRLNDYIFSFDK, peptide start residue: 505) (UniProt P54136)” has a log2 fold change of 0.343. In the case of “RPL34 (peptide sequence: RAFLIEEQKIVVK, peptide start residue: 93) (UniProt P49207)”, the log2 fold change is reported as -0.473. With “DHPS (peptide sequence: CTGMIILGGGVVK, peptide start residue: 275) (UniProt P49366)” the log2 fold change was -0.186. Target “SERPINH1 (peptide sequence: TDGALLVNAMFFKPHWDEK, peptide start residue: 195) (UniProt P50454)” has a log2 fold change of 0.152.
